Laboratory results as given in publication PMC11831433.
These are yes or no findings as the source states them, for the method shown. For part of these data: In cells and extracts the contact can be indirect. Some binding calls cover weakened binding; strength is not graded here. Tags and fused reporters may be left off the sequences shown. Each block holds one molecule with its values, some of them ahead of it.

By UniProt entry, the sequences of proteins in these tests, tags left out.
UniProt Q9R1K5: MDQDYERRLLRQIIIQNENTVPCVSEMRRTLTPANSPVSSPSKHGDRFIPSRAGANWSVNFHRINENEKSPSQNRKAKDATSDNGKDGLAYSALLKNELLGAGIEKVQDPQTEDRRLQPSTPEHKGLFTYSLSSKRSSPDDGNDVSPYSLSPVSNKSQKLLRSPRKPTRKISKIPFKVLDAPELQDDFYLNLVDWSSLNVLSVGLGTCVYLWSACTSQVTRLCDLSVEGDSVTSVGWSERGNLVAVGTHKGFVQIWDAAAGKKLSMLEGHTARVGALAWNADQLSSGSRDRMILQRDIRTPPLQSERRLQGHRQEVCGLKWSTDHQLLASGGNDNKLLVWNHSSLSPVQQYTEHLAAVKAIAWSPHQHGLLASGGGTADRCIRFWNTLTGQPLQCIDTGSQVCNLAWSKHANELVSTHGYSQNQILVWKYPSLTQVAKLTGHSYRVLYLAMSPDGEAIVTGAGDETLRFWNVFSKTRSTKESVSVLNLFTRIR
UniProt P24860: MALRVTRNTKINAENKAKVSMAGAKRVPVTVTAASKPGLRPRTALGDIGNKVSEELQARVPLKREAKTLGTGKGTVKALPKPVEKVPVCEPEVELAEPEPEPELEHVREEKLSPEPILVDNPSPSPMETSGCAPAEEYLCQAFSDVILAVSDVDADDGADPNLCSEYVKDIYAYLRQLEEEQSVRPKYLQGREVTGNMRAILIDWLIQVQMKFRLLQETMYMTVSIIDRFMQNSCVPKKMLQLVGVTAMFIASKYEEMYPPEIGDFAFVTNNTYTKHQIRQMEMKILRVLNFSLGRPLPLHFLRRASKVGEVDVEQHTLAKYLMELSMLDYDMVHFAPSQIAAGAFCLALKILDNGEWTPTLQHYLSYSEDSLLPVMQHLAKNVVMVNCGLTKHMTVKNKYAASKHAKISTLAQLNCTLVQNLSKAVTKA

Legend:
[1] = biological target: T1, NUSAP fused to Gal4-BD (pGBKT7-NUSAP) (UniProt Q9ERH4); test: two-hybrid; NUSAP on Gal4-BD (pGBKT7) as bait, preys on Gal4-AD (pGADT7); yeast strain Y2HGold; growth on SD/-Ade/-His/-Leu/-Trp, 3-4 days at 30 °C
T1 sequence: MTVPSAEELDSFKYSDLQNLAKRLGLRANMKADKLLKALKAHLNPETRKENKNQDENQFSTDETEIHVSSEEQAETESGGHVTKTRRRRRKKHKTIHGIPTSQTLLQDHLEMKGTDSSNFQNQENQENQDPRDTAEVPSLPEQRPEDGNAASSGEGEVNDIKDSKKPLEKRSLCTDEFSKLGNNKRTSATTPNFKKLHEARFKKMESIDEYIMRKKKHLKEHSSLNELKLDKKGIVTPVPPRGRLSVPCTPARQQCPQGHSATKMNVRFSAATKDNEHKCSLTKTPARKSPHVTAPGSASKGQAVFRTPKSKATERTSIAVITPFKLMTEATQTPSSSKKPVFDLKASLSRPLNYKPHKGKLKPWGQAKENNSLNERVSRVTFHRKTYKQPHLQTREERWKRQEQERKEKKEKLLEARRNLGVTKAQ

BTRC-Flag = biological target: T2, BTRC-Flag (UniProt Q3ULA2); test: co-IP; mouse oocytes microinjected with cRNAs of both tagged proteins, 4 hours in 200 µM IBMX; lysate precipitated with anti-Flag beads (16 hours, 4 °C), blotted with Flag and HA antibodies
T2 sequence: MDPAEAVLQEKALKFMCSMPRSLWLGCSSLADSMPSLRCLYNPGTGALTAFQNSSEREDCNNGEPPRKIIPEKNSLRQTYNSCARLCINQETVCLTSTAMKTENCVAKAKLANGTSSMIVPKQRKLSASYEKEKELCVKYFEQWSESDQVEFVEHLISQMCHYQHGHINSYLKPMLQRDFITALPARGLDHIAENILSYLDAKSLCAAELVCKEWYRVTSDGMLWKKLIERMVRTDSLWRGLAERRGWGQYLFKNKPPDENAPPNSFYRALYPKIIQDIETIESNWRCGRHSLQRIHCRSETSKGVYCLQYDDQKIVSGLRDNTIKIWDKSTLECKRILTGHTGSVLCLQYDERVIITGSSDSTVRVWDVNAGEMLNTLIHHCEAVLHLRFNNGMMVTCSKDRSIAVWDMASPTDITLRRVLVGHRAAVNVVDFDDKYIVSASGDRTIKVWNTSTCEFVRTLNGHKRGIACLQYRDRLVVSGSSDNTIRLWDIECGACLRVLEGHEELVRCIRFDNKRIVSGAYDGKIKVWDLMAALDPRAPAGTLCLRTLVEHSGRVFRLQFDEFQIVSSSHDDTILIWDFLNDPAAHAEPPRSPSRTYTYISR

NUSAP-Flag = biological target: T3, NUSAP-Flag (UniProt Q9ERH4); test: as above
T3 sequence: T1 sequence

CDH1-HA = CDH1-HA (UniProt Q9R1K5); test: co-IP; mouse oocytes microinjected with CDH1-HA and BTRC-Flag cRNA, 4 hours in 200 µM IBMX; precipitated with anti-HA beads, blotted with HA and Flag antibodies

Molecule: CDH1 fused to Gal4-AD (pGADT7-CDH1) (from UniProt Q9R1K5 1-493)
- binding [1]: binds

B2: BTRC-Flag (protein, UniProt Q3ULA2 1-605)
chain: T2 sequence
- binding (CDH1-HA): binds

Continued, values first:

- binding (BTRC-Flag): binds
- binding (NUSAP-Flag): binds
Molecule: CDH1-HA (from UniProt Q9R1K5 1-493)

- binding [1]: no binding
Molecule: Cyclin B1 fused to Gal4-AD (pGADT7-Cyclin B1) (from UniProt P24860 1-430)

- binding [1]: no binding
B1: SECURIN fused to Gal4-AD (pGADT7-SECURIN) (protein, UniProt Q9CQJ7 1-199)
chain: MATLIFVDKDNEEPGRRLASKDGLKLGTGVKALDGKLQVSTPRVGKVFNAPAVPKASRKALGTVNRVAEKPMKTGKPLQPKQPTLTGKKITEKSTKTQSSVPAPDDAYPEIEKFFPFNPLDFESFDLPEEHQISLLPLNGVPLMTLNEERGLEKLLHLGPPSPLKTPFLSWESDPLYSPPSALSTLDVELPPVCYDADI
